In all, about 310,000 compounds went through this assay and about 17,000 (5.5%) were called active. The inconclusive results got no clear call from the source; some entries with a clear call stand among them for comparison. Calls follow the shape of the dose curve; as a rule, active = well fitted inhibition curve with a large enough effect; inconclusive = small, poorly fitted or top-dose-only effect, or effect the other way; inactive = no such curve, though single readings can be large or run the other way. Potencies of inconclusive entries are doubtful fits and often do not repeat.
The molecules below were run against Nuclear receptor ROR-gamma (Mus musculus) (UniProt P51450) (assay: qHTS for inhibitors of ROR gamma transcriptional activity). Conditions: Drosophila S2 Gal4-RORgamma UAS-luciferase reporter, 20 h; activity change, negative = inhibition: at 53.6 µM (top of the series).
Method in brief: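 ROR gamma transcriptional activity was tracked as Gal4-UAS luciferase output in stably transfected Drosophila Schneider cells, with compound added 1 hr before 700 uM copper sulfate induction and a 20 hr ambient-temperature incubation.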
% is scaled to controls: 0 for no effect and ±100 for the full control effect; potency is read from the fitted curve at half-maximal effect.
Also: nearly all actives have a fitted effect of over 60% in size.

By UniProt entry, the sequences of proteins in these tests, tags left out. Where a name states a change or a piece, a line headed by the entry shows the natural chain unless it says otherwise.
UniProt P51450: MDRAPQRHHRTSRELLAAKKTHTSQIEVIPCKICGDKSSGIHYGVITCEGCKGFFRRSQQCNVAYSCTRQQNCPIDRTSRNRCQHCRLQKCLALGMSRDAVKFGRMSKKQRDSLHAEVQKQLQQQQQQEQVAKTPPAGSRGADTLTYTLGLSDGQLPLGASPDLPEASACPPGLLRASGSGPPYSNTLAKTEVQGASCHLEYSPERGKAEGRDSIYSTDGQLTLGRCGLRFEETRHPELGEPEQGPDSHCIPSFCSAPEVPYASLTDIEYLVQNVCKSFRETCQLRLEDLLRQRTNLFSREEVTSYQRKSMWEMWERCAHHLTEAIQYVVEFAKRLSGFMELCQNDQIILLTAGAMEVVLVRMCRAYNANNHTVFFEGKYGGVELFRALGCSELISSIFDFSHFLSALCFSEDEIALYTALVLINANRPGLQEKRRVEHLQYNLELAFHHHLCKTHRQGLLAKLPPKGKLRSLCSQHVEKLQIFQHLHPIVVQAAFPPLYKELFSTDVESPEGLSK

| SMILES | Potency | activity change, negative = inhibition |
| --- | --- | --- |
| Cc1ccc(CC2SC(=O)NC2=O)cc1Cl (stereo unspecified) | inconclusive: 1.78 µM [inhibitor, full curve, poor fit] |  |
| Cc1cccc(CN2C(=O)NC(c3ccccc3)(c3ccccc3)C2=O)c1 | inconclusive: 14.1 µM [activator, single point] |  |
| O=C(c1cc(C(F)(F)F)cc(C(F)(F)F)c1)N1CCC2(CCCN(c3ccccn3)C2)CC1 | inconclusive: 35.5 µM [inhibitor, single point] |  |
| CCN(CC)C(=O)Cn1c(=O)n(CCCCCC(=O)Nc2ccccc2)c(=O)c2sccc21 | inconclusive: 20 µM [activator, single point] |  |
| CCOC(=O)N1CCN(Cc2nc3cc(NC(=O)CC(C)C)ccc3n2CC)CC1 |  | inactive: -13.3% |
| CCC(=O)Nc1sc2c(c1C(N)=O)CCN(C(C)=O)C2 | inconclusive: 12.6 µM [activator, partial curve, poor fit] |  |
| COc1ccccc1-n1c(SCC(=O)Nc2ccc(Br)cc2)nc(O)cc1=O |  | inactive: 17.9% |
| COc1ccc(NC(=S)Nc2ccccn2)cc1 | active: 2.82 µM |  |
| CCCCCCC(=O)N1C/C=C\C(c2ccc(OC)cc2)N(Cc2ccc(F)cc2)C(=O)C1 (stereo unspecified) | inconclusive: 14.1 µM [inhibitor, single point] |  |
| Cn1nc(C(F)(F)F)c(-c2ccc(Br)cc2)c1NC(=O)CSCC(=O)O |  | inactive: 3.22% |
| O=C(Nc1nc2c(F)cc(F)cc2s1)c1ccc([N+](=O)[O-])o1 |  | inactive: -32.3% |
| CCCCCCCCCCCCCCCCCCOC[C@@H](O)COP(=O)([O-])OCC[N+](C)(C)C |  | inactive: 24.9% |
| CC(NC(=O)Cc1ccc(F)cc1)c1ccc(F)cc1 (stereo unspecified) | inconclusive: 10 µM [activator, partial curve] |  |
| C=C(C)c1cccc(C(C)(C)NC(=O)Nc2ccc(C(C)=O)cc2)c1 | inconclusive: 35.5 µM [activator, single point] |  |
| COc1ccc2cc(C(=O)C3CCCN(C(=O)c4ccnn4C)C3)ccc2c1 (stereo unspecified) |  | inactive: 25.9% |
| C/C=C/c1ccc(OCC(=O)Nc2ccc(OC)c(OC)c2)c(OC)c1 |  | inactive: 27.1% |
| COc1ccccc1CN1CC(C(=O)NCc2cc(C(C)C)no2)CCC1=O (stereo unspecified) |  | inactive: -2.41% |
| CCCC[C@H]1C2=C3[C@@H](CC(C(=O)OC)=C[C@@H](C(=O)OC)[C@H]3C(C)(C)C2=O)n2c(=O)n(C)c(=O)n21 |  | inactive: 34.2% |
| Cc1cc(C(=O)Nc2cccc(C(=O)O)c2)c(C)o1 | inconclusive: 35.5 µM [activator, single point] |  |
| Cc1ccc(-n2nnnc2-c2cnc(N3CCCC3)nc2C(F)(F)F)cc1 | inconclusive: 35.5 µM [inhibitor, single point] |  |
| O=C(O)COc1ccc(/C=N/NC(=O)/C(=C/C=C/c2ccccc2)NC(=O)c2ccccc2)cc1 |  | inactive: -3.03% |
| Cc1ccc(Cc2cnc(N3C(=N)SC(c4ccccc4)C3=O)s2)cc1 (stereo unspecified) | active: 11.2 µM |  |
| CCN(Cc1ccc(C#CCCO)cc1)CC1CCCN(CCc2cccc(F)c2)C1 (stereo unspecified) |  | inactive: -38% |
| O=C1CN(c2nc(-c3ccccc3)c3cc(Cl)ccc3n2)c2ccccc2N1 |  | inactive: 13.3% |

| SMILES | Potency | activity change, negative = inhibition |
| --- | --- | --- |
| O=C(CSC(=S)N1CCOCC1)c1cc(Br)cc(Br)c1O | inconclusive: 17.8 µM [inhibitor, single point] |  |
| O=C(Nc1ccc2c(c1)OCCO2)c1ccc(Br)o1 | inconclusive: 10 µM [inhibitor, single point] |  |
| COc1ccc(N(C(C)C(=O)Nc2ccc(S(=O)(=O)N3CCCCC3)cc2)S(C)(=O)=O)cc1 (stereo unspecified) |  | inactive: 44.6% |
| Cc1ccccc1-c1ccc2ncnc(NCCN3CCOCC3)c2c1 | inconclusive: 15.8 µM [activator, single point] |  |
| COc1ccc(S(=O)(=O)N(CCCN2CCOCC2)Cc2cccc3ccccc23)cc1 | inconclusive: 11.2 µM [inhibitor, single point] |  |
| Cc1ccc(-c2csc(=S)[nH]2)cc1 | active: 7.08 µM |  |
| COc1ccc(Nc2nc(-c3cccs3)cs2)cc1 | inconclusive: 12.6 µM [inhibitor, single point] |  |
| C/C(=N\NC(=O)c1c(C)nc2ccccn12)c1ccc(O)cc1O | inconclusive: 7.94 µM [inhibitor, partial curve] |  |
| O=C(NN=C1CCN(Cc2ccccc2)CC1)c1ccccc1O | active: 10 µM |  |
| Clc1ccc(SCc2cc(N3CCOCC3)nc(-c3ccccn3)n2)cc1 | active: 0.562 µM |  |
| O=C(Nc1nnc(Cc2ccc(Cl)cc2)s1)c1cccs1 | inconclusive: 5.62 µM [activator, single point] |  |
| COc1ccc(NC(=O)c2cc3ccccc3oc2=O)c(OC)c1 | inconclusive: 0.0079 µM [inhibitor, full curve] |  |
| CCN(CC)S(=O)(=O)c1ccc(O)c(NC(=O)c2cc(-c3cc(OC)c(OC)c(OC)c3)nc3ccccc23)c1 | inconclusive: 12.6 µM [activator, partial curve] |  |
| O=C(CCNC(=O)Cn1ccc2ccccc2c1=O)NCCCN1CCN(c2ccc(F)cc2)CC1 | inconclusive: 1 µM [activator, full curve, poor fit] |  |
| CCOC(=O)c1c(C)[nH]c(C(=O)NNC(=O)c2ccc(C(C)(C)C)cc2)c1C | inconclusive: 15.8 µM [activator, single point] |  |
| OC[C@@H]1[C@@H](c2ccccc2)C(c2ccccc2)=NN1c1ccccc1 |  | inactive: -26.4% |
| CCOC(=O)CSc1nc2cc(OC)ccc2cc1C#N | inconclusive: 6.31 µM [activator, full curve] |  |
| COc1cc(C(=O)Oc2ccccc2/C=N/NC(=O)c2ccc(Cl)cc2Cl)cc(OC)c1OC | active: 7.08 µM |  |
| O=C(CCc1nnc(CCc2ccccc2)o1)N1CCCC1c1nccs1 (stereo unspecified) |  | inactive: 8.54% |
| COCc1cc(/C=N\NC(=O)Cc2ccc(OC)cc2)ccc1OC | inconclusive: 25.1 µM [activator, single point] |  |
| Cc1cc2nc(CSc3ccc(Cl)cc3)cc(=O)n2[nH]1 | active: 11.2 µM |  |
| O=S(=O)(Nc1ccc2c(c1)nc1n2CCOC1)c1ccc(Cl)cc1 | inconclusive: 15.8 µM [activator, single point] |  |
| O=[N+]([O-])c1ccc(N2CCN(S(=O)(=O)c3ccccc3)CC2)cc1NCCN1CCOCC1 | inconclusive: 0.562 µM [activator, full curve, poor fit] |  |
| N#C/C(=C\c1ccc(Cl)c([N+](=O)[O-])c1)c1ccccn1 | inconclusive: 35.5 µM [inhibitor, single point] |  |

| SMILES | Potency | activity change, negative = inhibition |
| --- | --- | --- |
| CC(C)S(=O)(=O)c1csc(NC(=O)Nc2ccc(Cl)cc2)c1 |  | inactive: 29.2% |
| Cc1ccccc1OCC(=O)Nc1ccc2c(c1)C(=O)c1ccccc1C2=O |  | inactive: 11.5% |
| COc1ccc(-n2c(SCC(=O)/C(C#N)=C(\C)N)nc3ccccc3c2=O)cc1OC | inconclusive: 17.8 µM [inhibitor, single point] |  |
| COc1ccccc1N1CCN(CC(=O)c2c(C)[nH]c3cc(C)ccc23)CC1 |  | inactive: 17.3% |
| O=C(N/N=C/c1ccccc1)c1n[nH]c2c1CCCC2 | inconclusive: 10 µM [inhibitor, partial curve] |  |
| CC(c1ccon1)N(C)C(=O)c1ccc(OC2CCN(C(=O)C3CC3)CC2)cc1 (stereo unspecified) | inconclusive: 35.5 µM [activator, single point] |  |
| CC1CN(CC(=O)Nc2ccccc2Sc2ccccc2)CC(C)O1 (stereo unspecified) | inconclusive: 15.8 µM [activator, single point] |  |
| COc1ccc(C2C(C(=O)Nc3cccnc3)=C(C)Nc3nc(-c4cccs4)nn32)cc1OC (stereo unspecified) | inconclusive: 17.8 µM [activator, single point] |  |
| CCN(CC)CCCC(C)Nc1nc(C)cc(Nc2ccc3nc(C)cc(N)c3c2)n1 (stereo unspecified) |  | inactive: -13.9% |
| Cc1ccc(NC(=O)c2nc[nH]c2C(=O)N2CCCCC2)c(C(=O)c2ccccc2)c1 | inconclusive: 35.5 µM [inhibitor, single point] |  |
| O=C1c2cccc3cccc(c23)C(=O)N1CCN1CCN(CC(O)COc2ccc3ccccc3c2)CC1 (stereo unspecified) | inconclusive: 25.1 µM [inhibitor, single point] |  |
| COc1cc(Br)cc(C=Nc2cccc(C(F)(F)F)c2)c1O | inconclusive: 35.5 µM [inhibitor, single point] |  |
| NC(=O)c1ccccc1OCC(=O)N1CCc2ccccc2C1 | inconclusive: 11.2 µM [activator, partial curve] |  |
| CN(Cc1ccccc1)c1nc2c(c(=O)[nH]c(=O)n2C)n1Cc1ccccc1F | inconclusive: 1.78 µM [activator, partial curve] |  |
| COc1ccc(Br)c(C(=O)Nc2ccc(F)cc2)c1 |  | inactive: -0.22% |
| CC1Cc2nc(SCC(=O)N3CCCc4ccccc43)n(C)c(=O)c2S1 (stereo unspecified) | inconclusive: 11.2 µM [activator, partial curve] |  |
| Cc1cc(/C=N/NC(N)=S)c(C)n1-c1cccc(Cl)c1 | active: 2.82 µM |  |
| O=C(c1c[nH]c(C(=O)C(Cl)(Cl)Cl)c1)c1ccc(F)cc1F | inconclusive: 35.5 µM [inhibitor, single point] |  |
| CCC(C)(C)NC(=O)CN(C(=O)CNS(=O)(=O)c1ccccc1)c1ccccc1 |  | inactive: 40.8% |
| Clc1ccc(OCCn2cnc(Cl)c2Cl)cc1 | inconclusive: 6.31 µM [activator, partial curve, poor fit] |  |
| Cc1nc(Nc2ccc(C(=O)O)cc2)nc(Nc2ccc(C(=O)O)cc2)c1[N+](=O)[O-] | inconclusive: 20 µM [inhibitor, partial curve, poor fit] |  |
| CC1(C)CC(=O)c2c(oc3ccc(NS(=O)(=O)c4cccc5cccnc45)cc23)C1 | inconclusive: 35.5 µM [inhibitor, single point] |  |
| O=C(Nc1ccc2nc3n(c(=O)c2c1)CCCC3)c1cc([N+](=O)[O-])ccc1F |  | inactive: 5.32% [at 10 µM] |

Single values from above:
Under Potency, `COc1ccc(C2C(C(=O)Nc3cccnc3)=C(C)Nc3nc(-c4cccs4)nn32)cc1OC` (stereo unspecified) is entered as inconclusive: 17.8 µM [activator, single point]
Under Potency, `Cc1nc(Nc2ccc(C(=O)O)cc2)nc(Nc2ccc(C(=O)O)cc2)c1[N+](=O)[O-]` is entered as inconclusive: 20 µM [inhibitor, partial curve, poor fit]
Under Potency, `Cc1ccc(NC(=O)c2nc[nH]c2C(=O)N2CCCCC2)c(C(=O)c2ccccc2)c1` is entered as inconclusive: 35.5 µM [inhibitor, single point]
Under Potency, `O=C(c1c[nH]c(C(=O)C(Cl)(Cl)Cl)c1)c1ccc(F)cc1F` is entered as inconclusive: 35.5 µM [inhibitor, single point]
